No constants are given. Whether binding was seen depends on the method and setting. Binding seen in cells or lysates may run through a third protein. Some entries that bind do so weakly or less than the wild type.

Our source for the binding values is doi:10.1101/676635.

The test deals with T1, serum response factor (SRF) (mouse (endogenous in primary mouse dermal fibroblasts)) (UniProt Q9JM73).
T1 sequence: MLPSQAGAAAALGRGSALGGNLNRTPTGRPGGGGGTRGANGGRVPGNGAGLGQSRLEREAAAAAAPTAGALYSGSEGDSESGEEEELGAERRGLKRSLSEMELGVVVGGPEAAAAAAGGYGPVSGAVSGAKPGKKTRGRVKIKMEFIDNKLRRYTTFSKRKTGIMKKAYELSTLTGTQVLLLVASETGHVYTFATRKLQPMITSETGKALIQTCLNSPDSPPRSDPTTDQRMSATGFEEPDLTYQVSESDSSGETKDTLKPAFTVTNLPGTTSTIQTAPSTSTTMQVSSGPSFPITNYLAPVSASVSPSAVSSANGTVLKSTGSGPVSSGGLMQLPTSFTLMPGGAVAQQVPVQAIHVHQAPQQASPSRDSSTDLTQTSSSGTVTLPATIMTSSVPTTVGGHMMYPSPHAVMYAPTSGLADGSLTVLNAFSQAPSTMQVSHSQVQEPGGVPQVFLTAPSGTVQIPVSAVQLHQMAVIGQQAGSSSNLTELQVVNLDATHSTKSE
Briefly: co-IP.

B1: Myocardin-related transcription factor A (MRTF-A) (protein, UniProt Q8K4J6 1-964)
chain: MTLLEPEMLMMAVQSVLQLKLQQRRTREELVSQGIMPPLKSPAAFHEQRRSLERARTEDYLKRKIRSRPERAELVRMHILEETSAEPSLQAKQLKLKRARLADDLNEKIAQRPGPMELVEKNILPVESSLKEAIIVGQVNYPKVADSSSFDEDSSDALSPEQPASHESQGSVPSPLESRVSDPLPSATSISPTQVLSQLPMAPDPGETLFLAEQPPLPPAPLLPPSLANGSIVPTAKPAPTLIKQSQPKSASEKSQRSKKAKELKPKVKKLKYHQYIPPDQKQDKGAPAMDSSYAKILQQQQLFLQLQILNQQQQQQQQQHYNYQAILPAPPKPSAETPGSSAPTPSRSLSTSSSPSSGTPGPSGLARQSSTALAAKPGALPANLDDMKVAELKQELKLRSLPVSGTKTELIERLRAYQDQVSPAPGAPKAPATTSVLSKAGEVVVAFPAALLSTGSALVTAGLAPAEMVVATVTSNGMVKFGSTGSTPPVSPTPSERSLLSTGDENSTPGDAFGEMVTSPLTQLTLQASPLQIVKEEGARAASCCLSPGARAELEGLDKDQMLQEKDKQIEELTRMLQQKQQLVELLRLQLEQQKRAQQPAPASSPVKRESGFSSCQLSCQPQGSAHAFGSGLVVPTTNHGDTQAPAPESPPVVVKQEAGPPEPDLAPSSQLLLGSQGTSFLKRVSPPTLVTDSTGTHLILTVTNKSADGPGLPAGSPQQPLSQPGSPAPGPPAQMDLEHPPQPPFATPTSLLKKEPPGYEETVTQQPKQQENGSSSQHMDDLFDILIQSGEISADFKEPPSLPGKEKSPPAAAAYGPPLTPQPSPLSELPQAAPPPGSPTLPGRLEDFLESSTGLPLLTSGHEGPEPLSLIDDLHSQMLSSSAILDHPPSPMDTSELHFAPEPSSGMGLDLAVGHLDSMDWLELSSGGPVLSLAPLSTAAPSLFSMDFLDGHDLQLHWDSCL
B1: the binding result is listed as “binds”.
